Data reported in patent publication US7456214B2, “Chromene-containing compounds with anti-tubulin and vascular targeting activity” (Baylor University, priority 2004, dated 2008).
Counter-ions that a name gives are not always drawn. For at least one compound, name, drawing or mass did not settle the structure.

Test system: purified tubulin
Test: In vitro inhibition of tubulin polymerization
Type: biochemical, bovine
Conditions: 1.5 mg/ml tubulin, 15 min preincubation at 37° C., GTP-induced, 350 nm
Experimental: IC50 values for tubulin polymerization were determined according to a previously described procedure (Bai et al., Cancer Research, 1996). Purified tubulin is obtained from bovine brain cells as previously described (Hamel and Lin, Biochemistry, 1984). Various amounts of inhibitor were preincubated for 15 minutes at 37° C. with purified tubulin. After the incubation period, the reaction was cooled and GTP was added to induce tubulin polymerization. Polymerization was then monitored in a Gilford spectrophotometer at 350 nm. The final reaction mixtures (0.25 ml) contained 1.5 mg/ml tubulin, 0.6 mg/ml microtubule-associated proteins (MAPs), 0.5 mM GTP, 0.5 mM MgCl2, 4% DMSO and 0.1M 4-morpholineethanesulfonate buffer (MES, pH 6.4). IC50 is the amount of inhibitor needed to inhibit tubulin polymerization 50% with respect to the amount of […] that occurs in the absence of inhibitor.

## COc1cc(C(=O)C2=Cc3cccc(OP(=O)(O)O)c3OC2)cc(OC)c1OC [Compound 16, 3-(3′,4′,5′-Trimethoxybenzoyl)-8-phosphate-2H-chromene disodium salt]
  IC50: > 40 µM
